Earlier results as cited in patent publication US7652024B2, “Acylated spiropiperidine derivatives as melanocortin-4 receptor modulators” (Merck Sharp & Dohme Corp., priority 2005, dated 2010).
Some results were stated once for a whole list of compounds, not compound by compound. Some ranges recur; such a range may be that of the whole group of compounds.

Tested on: body weight

In the case of `CCCCCCCCCCC[C@@H](C[C@@H]1OC(=O)[C@H]1CCCCCC)OC(=O)[C@H](CC(C)C)NC=O` [orlistat], the “weight loss of body weight for drug compared to placebo” value (monotherapy, drug compared to placebo) is listed as 5%-10% and the “reduction of body weight” value (over a 6 month or a 1 year period) is listed as “less than 10%”.
